{
  "source": "the supplement of paper PMC8728848",
  "binders": {"B1": {"name": "AcfC (Vibrio cholerae), Q57410 (protein)", "chain": "MKSKNRFLLISLLSFSTSVFADVNLYGPGGPHVPLIKVAESFEKSQSKRVNITFGPQATWNDKAKKNADILFGASEHSALAIAEGHSERFSKFNIHPVFMREAIILVKKGNPKNIKGMADLLKPGIGIVVNDGAGVSNTSGTAVWEDSVGRMKNVEKLQAFRSNIHVFAPNSGSARKAFVDGEDIDAWITWVDWAIANPTIGDMVRMEDEYRIYRDFNVVLAKNPSSEAIDFFDYLTKSKDAEAIFQHYGWFK"}},
  "experiment_in_all_cases": "glycan array binding signal (z-score within array); higher = stronger binding",
  "details_in_all_cases": "glycan notation: IUPAC condensed, linker removed",
  "key": {"[1]": {"target": "Fuc(a1-2)[GalNAc(a1-3)]Gal(b1-4)GlcNAc(b1-3)Gal(b1-4)GlcNAc", "outline": "(§1)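 The binding signal is a Z-score computed within each array. Data were drawn from 3228 arrays in the Consortium for Functional Glycomics database, restricted to those with a known protein sequence. Scores were averaged over arrays of the same protein sequence at different concentrations or buffers, and over linkers, and negative values can be taken as non-binding.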"}, "[2]": {"target": "Fuc(a1-2)[GalNAc(a1-3)]Gal(b1-4)GlcNAc(b1-3)Gal(b1-4)GlcNAc(b1-3)Gal(b1-4)GlcNAc", "outline": "as §1"}, "[3]": {"target": "Fuc(a1-2)[GalNAc(a1-3)]Gal(b1-4)[Fuc(a1-3)]GlcNAc", "outline": "as §1"}, "[4]": {"target": "Fuc(a1-2)[GalNAc(a1-4)]Gal(b1-4)GlcNAc", "outline": "as §1"}, "[5]": {"target": "Fuc(a1-2)[GalNAc(b1-3)]Gal", "outline": "as §1"}, "Fuc(a1-3)GlcNAc": {"target": "Fuc(a1-3)GlcNAc", "outline": "as §1"}, "[6]": {"target": "Fuc(a1-3)[Gal(b1-4)]Glc6S", "outline": "as §1"}, "[7]": {"target": "Fuc(a1-3)[Gal(b1-4)]GlcNAc", "outline": "as §1"}, "[8]": {"target": "Fuc(a1-3)[Gal(b1-4)]GlcNAc(b1-2)Man(a1-3)[Fuc(a1-3)[Gal(b1-4)]GlcNAc(b1-2)Man(a1-6)]Man(b1-4)GlcNAc(b1-4)GlcNAc", "outline": "as §1"}, "[9]": {"target": "Fuc(a1-3)[Gal(b1-4)]GlcNAc(b1-3)Gal(b1-3)[Fuc(a1-4)]GlcNAc", "outline": "as §1"}, "[10]": {"target": "Fuc(a1-3)[Gal(b1-4)]GlcNAc(b1-3)GalNAc", "outline": "as §1"}, "[11]": {"target": "Fuc(a1-3)[Gal(b1-4)]GlcNAc(b1-4)Gal(b1-4)[Fuc(a1-3)]GlcNAc", "outline": "as §1"}, "[12]": {"target": "Fuc(a1-3)[Gal(b1-4)]GlcNAc(b1-4)Gal(b1-4)[Fuc(a1-3)]GlcNAc(b1-4)Gal(b1-4)[Fuc(a1-3)]GlcNAc", "outline": "as §1"}, "[13]": {"target": "Fuc(a1-3)[Gal(b1-4)]GlcNAc(b1-6)[Gal(b1-3)GlcNAc(b1-3)]Gal(b1-4)Glc", "outline": "as §1"}, "[14]": {"target": "Fuc(a1-3)[Gal(b1-4)]GlcNAc6S", "outline": "as §1"}, "[15]": {"target": "Fuc(a1-3)[Gal3S(b1-4)]GlcNAc", "outline": "as §1"}, "[16]": {"target": "Fuc(a1-3)[Gal3S(b1-4)]GlcNAc6S", "outline": "as §1"}, "[17]": {"target": "Fuc(a1-3)[GalNAc(b1-4)]GlcNAc", "outline": "as §1"}, "Fuc(a1-4)GlcNAc": {"target": "Fuc(a1-4)GlcNAc", "outline": "as §1"}, "Fuc(b1-3)GlcNAc": {"target": "Fuc(b1-3)GlcNAc", "outline": "as §1"}, "Gal(a1-2)Gal": {"target": "Gal(a1-2)Gal", "outline": "as §1"}, "Gal(a1-3)Gal": {"target": "Gal(a1-3)Gal", "outline": "as §1"}, "Gal(a1-3)Gal(b1-3)GlcNAc": {"target": "Gal(a1-3)Gal(b1-3)GlcNAc", "outline": "as §1"}, "[18]": {"target": "Gal(a1-3)Gal(b1-3)GlcNAc(b1-2)Man(a1-3)[Gal(a1-3)Gal(b1-3)GlcNAc(b1-2)Man(a1-6)]Man(b1-4)GlcNAc(b1-4)GlcNAc", "outline": "as §1"}, "[19]": {"target": "Gal(a1-3)Gal(b1-3)[Fuc(a1-4)]GlcNAc(b1-2)Man(a1-3)[Gal(a1-3)Gal(b1-3)[Fuc(a1-4)]GlcNAc(b1-2)Man(a1-6)]Man(b1-4)GlcNAc(b1-4)GlcNAc", "outline": "as §1"}, "Gal(a1-3)Gal(b1-4)Glc": {"target": "Gal(a1-3)Gal(b1-4)Glc", "outline": "as §1"}, "Gal(a1-3)Gal(b1-4)GlcNAc": {"target": "Gal(a1-3)Gal(b1-4)GlcNAc", "outline": "as §1"}, "[20]": {"target": "Gal(a1-3)Gal(b1-4)GlcNAc(b1-3)GalNAc", "outline": "as §1"}, "[21]": {"target": "Gal(a1-3)Gal(b1-4)[Fuc(a1-3)]GlcNAc", "outline": "as §1"}, "[22]": {"target": "Gal(a1-3)Gal(b1-4)[Fuc(a1-3)]GlcNAc(b1-2)Man(a1-3)[Gal(a1-3)Gal(b1-4)[Fuc(a1-3)]GlcNAc(b1-2)Man(a1-6)]Man(b1-4)GlcNAc(b1-4)GlcNAc", "outline": "as §1"}, "Gal(a1-3)GalNAc": {"target": "Gal(a1-3)GalNAc", "outline": "as §1"}, "[23]": {"target": "Gal(a1-3)[Gal(a1-4)]Gal(b1-4)GlcNAc", "outline": "as §1"}, "[24]": {"target": "Gal(a1-4)Gal(b1-3)GlcNAc(b1-2)Man(a1-3)[Gal(a1-4)Gal(b1-3)GlcNAc(b1-2)Man(a1-6)]Man(b1-4)GlcNAc(b1-4)GlcNAc", "outline": "as §1"}, "Gal(a1-4)Gal(b1-4)Glc": {"target": "Gal(a1-4)Gal(b1-4)Glc", "outline": "as §1"}, "Gal(a1-4)Gal(b1-4)GlcNAc": {"target": "Gal(a1-4)Gal(b1-4)GlcNAc", "outline": "as §1"}, "[25]": {"target": "Gal(a1-4)Gal(b1-4)GlcNAc(b1-2)Man(a1-3)[Gal(a1-4)Gal(b1-4)GlcNAc(b1-2)Man(a1-6)]Man(b1-4)GlcNAc(b1-4)GlcNAc", "outline": "as §1"}, "[26]": {"target": "Gal(a1-4)Gal(b1-4)GlcNAc(b1-3)Gal(b1-4)Glc", "outline": "as §1"}, "Gal(a1-4)GlcNAc": {"target": "Gal(a1-4)GlcNAc", "outline": "as §1"}, "Gal(a1-6)Glc": {"target": "Gal(a1-6)Glc", "outline": "as §1"}, "Gal(b1-2)Gal": {"target": "Gal(b1-2)Gal", "outline": "as §1"}, "Gal(b1-3)Gal": {"target": "Gal(b1-3)Gal", "outline": "as §1"}, "Gal(b1-3)Gal(b1-4)GlcNAc": {"target": "Gal(b1-3)Gal(b1-4)GlcNAc", "outline": "as §1"}, "[27]": {"target": "Gal(b1-3)Gal(b1-4)GlcNAc(b1-2)Man(a1-3)[Gal(b1-3)Gal(b1-4)GlcNAc(b1-2)Man(a1-6)]Man(b1-4)GlcNAc(b1-4)GlcNAc", "outline": "as §1"}, "Gal(b1-3)GalNAc": {"target": "Gal(b1-3)GalNAc", "outline": "as §1"}, "[28]": {"target": "Gal(b1-3)GalNAc(a1-3)[Fuc(a1-2)]Gal(b1-4)Glc", "outline": "as §1"}},
  "note": "The other results are listed elsewhere or left out.",
  "data": [
    {"binder": "B1", "values": [
      {"measurement": "glycan array binding signal (z-score)", "setting": "[1]", "result": 0.806},
      {"measurement": "glycan array binding signal (z-score)", "setting": "[2]", "result": 0.499},
      {"measurement": "glycan array binding signal (z-score)", "setting": "[3]", "result": 0.39},
      {"measurement": "glycan array binding signal (z-score)", "setting": "[4]", "result": -0.154},
      {"measurement": "glycan array binding signal (z-score)", "setting": "[5]", "result": -0.701},
      {"measurement": "glycan array binding signal (z-score)", "setting": "Fuc(a1-3)GlcNAc", "result": -1.06},
      {"measurement": "glycan array binding signal (z-score)", "setting": "[6]", "result": -0.091},
      {"measurement": "glycan array binding signal (z-score)", "setting": "[7]", "result": -0.258},
      {"measurement": "glycan array binding signal (z-score)", "setting": "[8]", "result": -0.58},
      {"measurement": "glycan array binding signal (z-score)", "setting": "[9]", "result": 0.643},
      {"measurement": "glycan array binding signal (z-score)", "setting": "[10]", "result": 1.43},
      {"measurement": "glycan array binding signal (z-score)", "setting": "[11]", "result": -0.549},
      {"measurement": "glycan array binding signal (z-score)", "setting": "[12]", "result": -1.63},
      {"measurement": "glycan array binding signal (z-score)", "setting": "[13]", "result": 0.646},
      {"measurement": "glycan array binding signal (z-score)", "setting": "[14]", "result": 0.521},
      {"measurement": "glycan array binding signal (z-score)", "setting": "[15]", "result": 0.629},
      {"measurement": "glycan array binding signal (z-score)", "setting": "[16]", "result": -0.131},
      {"measurement": "glycan array binding signal (z-score)", "setting": "[17]", "result": -0.775},
      {"measurement": "glycan array binding signal (z-score)", "setting": "Fuc(a1-4)GlcNAc", "result": -0.557},
      {"measurement": "glycan array binding signal (z-score)", "setting": "Fuc(b1-3)GlcNAc", "result": -0.5},
      {"measurement": "glycan array binding signal (z-score)", "setting": "Gal(a1-2)Gal", "result": 1.61},
      {"measurement": "glycan array binding signal (z-score)", "setting": "Gal(a1-3)Gal", "result": 0.458},
      {"measurement": "glycan array binding signal (z-score)", "setting": "Gal(a1-3)Gal(b1-3)GlcNAc", "result": -0.639},
      {"measurement": "glycan array binding signal (z-score)", "setting": "[18]", "result": -0.58},
      {"measurement": "glycan array binding signal (z-score)", "setting": "[19]", "result": 4.58},
      {"measurement": "glycan array binding signal (z-score)", "setting": "Gal(a1-3)Gal(b1-4)Glc", "result": -0.864},
      {"measurement": "glycan array binding signal (z-score)", "setting": "Gal(a1-3)Gal(b1-4)GlcNAc", "result": 0.091},
      {"measurement": "glycan array binding signal (z-score)", "setting": "[20]", "result": -0.809},
      {"measurement": "glycan array binding signal (z-score)", "setting": "[21]", "result": -0.828},
      {"measurement": "glycan array binding signal (z-score)", "setting": "[22]", "result": 1.24},
      {"measurement": "glycan array binding signal (z-score)", "setting": "Gal(a1-3)GalNAc", "result": 0.153},
      {"measurement": "glycan array binding signal (z-score)", "setting": "[23]", "result": -0.149},
      {"measurement": "glycan array binding signal (z-score)", "setting": "[24]", "result": 0.864},
      {"measurement": "glycan array binding signal (z-score)", "setting": "Gal(a1-4)Gal(b1-4)Glc", "result": -0.134},
      {"measurement": "glycan array binding signal (z-score)", "setting": "Gal(a1-4)Gal(b1-4)GlcNAc", "result": 0.091},
      {"measurement": "glycan array binding signal (z-score)", "setting": "[25]", "result": 0.985},
      {"measurement": "glycan array binding signal (z-score)", "setting": "[26]", "result": 1.49},
      {"measurement": "glycan array binding signal (z-score)", "setting": "Gal(a1-4)GlcNAc", "result": 0.322},
      {"measurement": "glycan array binding signal (z-score)", "setting": "Gal(a1-6)Glc", "result": -0.861},
      {"measurement": "glycan array binding signal (z-score)", "setting": "Gal(b1-2)Gal", "result": -0.23},
      {"measurement": "glycan array binding signal (z-score)", "setting": "Gal(b1-3)Gal", "result": -0.901},
      {"measurement": "glycan array binding signal (z-score)", "setting": "Gal(b1-3)Gal(b1-4)GlcNAc", "result": -0.245},
      {"measurement": "glycan array binding signal (z-score)", "setting": "[27]", "result": 0.281},
      {"measurement": "glycan array binding signal (z-score)", "setting": "Gal(b1-3)GalNAc", "result": 0.199},
      {"measurement": "glycan array binding signal (z-score)", "setting": "[28]", "result": 0.135}
    ]}
  ]
}
